In the supplement of paper PMC6078165:
The reference is the same well before dosing, and untreated signal decays as well.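 Fibroblast labels name human fibroblasts: mostly primary ones from tissues such as uterus (C12385, HUF), lung (H6013), bone (Hs27A), adrenal (HADF) and skin (WS1), plus mammary HMF and breast cancer-associated Hs343T. The cancer cells are basal-like or mesenchymal-like triple-negative breast cancer lines. The paper calls a changed response a hit when it shifts by more than 3x the replicate standard deviation. The tissue of the other fibroblasts is not given here.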

Tested on: HCC1143
Test: relative JC-1 red fluorescence (viability) vs pre-drug, coculture with fibroblast (fraction); higher = more viable cancer cells
Experimental: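 JC-1 labelled TNBC cells cocultured 1:1 (1,500 cells each) with CellTrace Violet stained primary or stromal fibroblasts in 384-well plates in FluoroBrite medium, treated with one of 42 anticancer drugs at 0.1, 1, 10 or 100 uM. JC-1 red fluorescence (mitochondrial integrity in cancer cells only) was read by plate reader every 8 h for 72 h. Values are normalised to each well's pre-drug value. The stock of one drug was tenfold lower, so its dose labels may be too high.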

O=C(O)C1(C(=O)O)CCC1.[NH2-].[NH2-].[Pt+2] [Carboplatin]
relative JC-1 red fluorescence
Conditions	8 h	16 h	24 h	32 h	40 h	48 h	56 h	64 h	72 h
10 µM, coculture fibroblast: C12385	0.8498	0.7496	0.667	0.595	0.531	0.478	0.437	0.386	0.355
10 µM, coculture fibroblast: H6013	0.774	0.679	0.647	0.629	0.56	0.546	0.51	0.485	0.45
10 µM, coculture fibroblast: H6019	0.808	0.721	0.6824	0.619	0.576	0.547	0.498	0.4617	0.4203
10 µM, coculture fibroblast: H6076	0.803	0.781	0.747	0.721	0.6641	0.652	0.621	0.596	0.607
10 µM, coculture fibroblast: H6231	0.8259	0.814	0.73	0.655	0.634	0.614	0.571	0.524	0.496
10 µM, coculture fibroblast: HADF	0.7525	0.6713	0.6327	0.6232	0.5413	0.518	0.482	0.456	0.428
10 µM, coculture fibroblast: HCFa	0.775	0.686	0.664	0.644	0.57	0.533	0.5	0.466	0.443
10 µM, coculture fibroblast: HCPF	0.816	0.8224	0.764	0.675	0.6675	0.629	0.584	0.54	0.523
10 µM, coculture fibroblast: HHSteC	0.804	0.727	0.687	0.657	0.584	0.55	0.513	0.487	0.455
10 µM, coculture fibroblast: HMF	0.79534	0.825	0.742	0.6696	0.6512	0.6241	0.5861	0.552	0.523
10 µM, coculture fibroblast: HPFa	0.914	0.849	0.792	0.7	0.644	0.601	0.543	0.493	0.452
10 µM, coculture fibroblast: HUF	0.889	0.7776	0.723	0.6389	0.587	0.5478	0.494	0.4556	0.419
10 µM, coculture fibroblast: Hs5	0.845	0.85	0.786	0.747	0.664	0.626	0.592	0.553	0.55
10 µM, coculture fibroblast: Hs27A	0.7053	0.6242	0.571	0.5839	0.458	0.445	0.415	0.401	0.407
10 µM, coculture fibroblast: Hs343T	0.811	0.811	0.756	0.718	0.674	0.646	0.61	0.576	0.546
10 µM, coculture fibroblast: WS1	0.856	0.766	0.706	0.634	0.574	0.532	0.488	0.438	0.399
100 µM, coculture fibroblast: C12385	0.8068	0.75	0.702	0.657	0.6	0.572	0.56	0.53	0.526
100 µM, coculture fibroblast: H6013	0.778	0.731	0.712	0.71	0.67	0.678	0.655	0.648	0.611
100 µM, coculture fibroblast: H6019	0.815	0.752	0.719	0.659	0.632	0.619	0.583	0.556	0.542
100 µM, coculture fibroblast: H6076	0.8249	0.768	0.749	0.737	0.681	0.681	0.679	0.674	0.702
100 µM, coculture fibroblast: H6231	0.7998	0.786	0.7157	0.6197	0.6081	0.5739	0.532	0.5014	0.4909
100 µM, coculture fibroblast: HADF	0.758	0.735	0.713	0.726	0.663	0.663	0.647	0.638	0.622
100 µM, coculture fibroblast: HCFa	0.827	0.8	0.779	0.78	0.724	0.718	0.688	0.673	0.638
100 µM, coculture fibroblast: HCPF	0.807	0.78	0.732	0.653	0.645	0.619	0.588	0.554	0.54
100 µM, coculture fibroblast: HHSteC	0.84	0.81	0.787	0.764	0.718	0.7	0.674	0.659	0.616
100 µM, coculture fibroblast: HMF	0.8011	0.82	0.747	0.6649	0.658	0.624	0.57859	0.5452	0.522
100 µM, coculture fibroblast: HPFa	0.882	0.81187	0.788	0.694	0.639	0.617	0.568	0.5429	0.5168
100 µM, coculture fibroblast: HUF	0.8284	0.733	0.675	0.6	0.544	0.518	0.467	0.439	0.411
100 µM, coculture fibroblast: Hs5	0.855	0.831	0.7987	0.7745	0.7086	0.686	0.66	0.648	0.648
100 µM, coculture fibroblast: Hs27A	0.715	0.6907	0.668	0.694	0.609	0.631	0.614	0.615	0.59
100 µM, coculture fibroblast: Hs343T	0.78995	0.768	0.7081	0.633	0.592	0.558	0.513	0.496	0.463
100 µM, coculture fibroblast: WS1	0.808	0.74	0.7034	0.642	0.596	0.556	0.525	0.502	0.484
